PubChem BioAssay AID504774 – Drosophila RNAi Screening Center – 2011

Assay: 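Knock-downs that shift viability of MMS-exposed cells relative to untreated ones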 (primary screen)
Cell system: Drosophila Kc167 cells
Reagent: long dsRNA against Drosophila genes, about 0.25 µg dsRNA per well
Timing: about 6 days: 3 days knock-down, then 3 days with or without MMS
Treatment: methyl methanesulphonate 0.004% (w/v) for 3 days after knock-down
Measurement: 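ATP-dependent luminescence as a measure of live cells in MMS-exposed wells, quantile normalised within each plate, with replicate values also given as a mean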
Scale: mean viability with MMS: higher = more surviving cells after MMS
The deposit covers about 23,000 reagents; this is an unselected part of those with a known target gene and a result. 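Values are quantile-normalised luminescence on an arbitrary scale; higher means more cells surviving MMS.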 Further read-outs or replicates are left out here.

CG6191 [DRSC05938]
- mean viability with MMS: 3.40e6

CG6191 [DRSC23127]
- mean viability with MMS: 3.72e6

bcd [DRSC12624]
- mean viability with MMS: 3.76e6

Gem2 [DRSC09721]
- mean viability with MMS: 3.63e6

CG3795 [DRSC18593]
- mean viability with MMS: 3.60e6

CG32407 [DRSC09789]
- mean viability with MMS: 3.46e6

Ir56a [DRSC05776]
- mean viability with MMS: 3.57e6

CG1265 [DRSC08288]
- mean viability with MMS: 3.47e6

Sp1 [DRSC17622]
- mean viability with MMS: 3.54e6

Sp1 [DRSC18717]
- mean viability with MMS: 3.45e6

Acbp1 [DRSC03093]
- mean viability with MMS: 3.78e6

ocm [DRSC04360]
- mean viability with MMS: 2.81e6

mib1 [DRSC10550]
- mean viability with MMS: 3.63e6

CG14717 [DRSC14940]
- mean viability with MMS: 3.60e6

tbrd-1 [DRSC14601]
- mean viability with MMS: 3.60e6

CHES-1-like [DRSC18447]
- mean viability with MMS: 3.50e6

CG5013 [DRSC15695]
- mean viability with MMS: 3.55e6

Cbp20 [DRSC16601]
- mean viability with MMS: 3.32e6

CG34011 [DRSC00888]
- mean viability with MMS: 3.45e6

Mp20 [DRSC07474]
- mean viability with MMS: 3.54e6

Cdc45 [DRSC17747]
- mean viability with MMS: 2.99e6

Cdc45 [DRSC18164]
- mean viability with MMS: 3.48e6

Mal-A2 [DRSC07460]
- mean viability with MMS: 3.65e6

CG32532 [DRSC19556]
- mean viability with MMS: 3.57e6

CG32532 [DRSC19557]
- mean viability with MMS: 3.55e6

CG32532 [DRSC19558]
- mean viability with MMS: 3.54e6

CG32532 [DRSC21370]
- mean viability with MMS: 3.63e6

MFS15 [DRSC06523]
- mean viability with MMS: 3.34e6

Idgf2 [DRSC03350]
- mean viability with MMS: 3.60e6

CG31266 [DRSC15747]
- mean viability with MMS: 3.58e6

Polr3E [DRSC11880]
- mean viability with MMS: 3.24e6

Sin3A [DRSC07552]
- mean viability with MMS: 3.17e6

CG30440 [DRSC04775]
- mean viability with MMS: 3.60e6

CG30440 [DRSC04845]
- mean viability with MMS: 3.70e6

CG30440 [DRSC04855]
- mean viability with MMS: 3.41e6
